{"sequences": {"note": "Chains of the proteins cited; added tags and fusions are not shown. Chains listed by the source or under a name are the forms on record and can include a tag or linker.", "COUP-TF beta-galactosidase fusion (lambda gt11 clone) (Homo sapiens), one chain, as listed by the source": "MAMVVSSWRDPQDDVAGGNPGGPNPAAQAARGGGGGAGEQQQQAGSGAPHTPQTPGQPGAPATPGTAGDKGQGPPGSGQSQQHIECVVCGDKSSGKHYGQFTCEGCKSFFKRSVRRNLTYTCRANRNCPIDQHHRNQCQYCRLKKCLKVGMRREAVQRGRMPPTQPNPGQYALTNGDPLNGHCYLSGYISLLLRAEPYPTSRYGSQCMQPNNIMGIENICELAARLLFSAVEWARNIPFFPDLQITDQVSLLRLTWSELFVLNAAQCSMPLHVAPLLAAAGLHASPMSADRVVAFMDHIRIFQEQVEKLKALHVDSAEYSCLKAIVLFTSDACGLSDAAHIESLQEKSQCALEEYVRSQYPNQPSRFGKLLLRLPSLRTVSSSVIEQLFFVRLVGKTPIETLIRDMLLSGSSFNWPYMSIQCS"}, "source": "patent US5849477", "key": {"estrogen receptor": {"test_system": "estrogen receptor", "experiment": "footprint", "conditions": "weak DNase I footprint distinct from COUP-TF, vast excess of receptor, 100-fold molar excess COUP oligo did not compete for ER binding to its cognate element, letters built from the parent sequence and the stated change"}, "progesterone receptor": {"test_system": "progesterone receptor", "experiment": "competition with a labelled probe", "conditions": "[-]; 100-fold molar excess COUP oligo did not compete for PR binding to its cognate element; letters built from the parent sequence and the stated change"}, "[1]": {"test_system": "COUP-TF beta-galactosidase fusion (lambda gt11 clone) (Homo sapiens)", "experiment": "competition with a labelled probe", "conditions": "unlabeled oligo abolished complexes with ovalbumin probe; protein in a lysate after overexpression"}}, "note": "For at least one entry, the source does not settle the construct or the ends of the probe. For part of these data: Negatives hold for the conditions tested. For part of these data: A weaker result is weaker than the reference pair of the same experiment. For part of these data: Where cells or extracts were used, other partners may take part."}
{"sequence": "TATGGTGTCAAAGGTCAAACTT (double strand) [COUP oligonucleotide (ovalbumin), ER/PR experiments]", "values": [{"measurement": "binding result", "setting": "estrogen receptor", "result": "binds more weakly"}, {"measurement": "binding result", "setting": "progesterone receptor", "result": "no binding"}]}
{"sequence": "TCTATGGTGTCAAAGCTCAAACTTCTGA (double strand) [ovalbumin COUP wild-type oligonucleotide (-91 to -64)]", "values": [{"measurement": "binding result", "setting": "[1]", "result": "binds"}]}
